Source: publication PMC8510174
These are yes or no findings as the source states them, for the method shown. Some entries that bind do so weakly or less than the wild type. Tags and fused reporters may be left off the sequences shown. Blank lines part the entries; values can stand above or below the binder they belong to.

Amino acid sequences for entries named in this document (tags omitted).
UniProt Q07955: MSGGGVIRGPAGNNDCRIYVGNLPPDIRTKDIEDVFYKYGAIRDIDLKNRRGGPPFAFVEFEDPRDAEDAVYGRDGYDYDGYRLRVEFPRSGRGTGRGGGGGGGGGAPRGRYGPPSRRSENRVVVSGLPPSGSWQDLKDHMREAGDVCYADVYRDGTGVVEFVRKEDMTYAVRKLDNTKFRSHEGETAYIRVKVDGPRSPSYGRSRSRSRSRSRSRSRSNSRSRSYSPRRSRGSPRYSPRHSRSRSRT

Molecular target: GST-tagged ASF/SF2 (alternative splicing factor 1/pre-mRNA splicing factor SF2) (UniProt Q07955)
Assay: AlphaScreen or HTRF; His6-TRN-SR2 titrated (3-fold dilution series from 1,000 nM) over a fixed 30 nM GST-ASF/SF2; 25 mM Tris pH 7.4, 150 mM NaCl, 1 mM MgCl2, 0.1% Tween 20, 0.1% BSA; both purified

- binding: binds
B1: His6-tagged WT TRN-SR2 (transportin-SR2) (protein, UniProt Q9Y5L0-2 1-923)
chain: MEGAKPTLQLVYQAVQALYHDPDPSGKERASFWLGELQRSVHAWEISDQLLQIRQDVESCYFAAQTMKMKIQTSFYELPTDSHASLRDSLLTHIQNLKDLSPVIVTQLALAIADLALQMPSWKGCVQTLVEKYSNDVTSLPFLLEILTVLPEEVHSRSLRIGANRRTEIIEDLAFYSSTVVSLLMTCVEKAGTDEKMLMKVFRCLGSWFNLGVLDSNFMANNKLLALLFEVLQQDKTSSNLHEAASDCVCSALYAIENVETNLPLAMQLFQGVLTLETAYHMAVAREDLDKVLNYCRIFTELCETFLEKIVCTPGQGLGDLRTLELLLICAGHPQYEVVEISFNFWYRLGEHLYKTNDEVIHGIFKAYIQRLLHALARHCQLEPDHEGVPEETDDFGEFRMRVSDLVKDLIFLIGSMECFAQLYSTLKEGNPPWEVTEAVLFIMAAIAKSVDPENNPTLVEVLEGVVRLPETVHTAVRYTSIELVGEMSEVVDRNPQFLDPVLGYLMKGLCEKPLASAAAKAIHNICSVCRDHMAQHFNGLLEIARSLDSFLLSPEAAVGLLKGTALVLARLPLDKITECLSELCSVQVMALKKLLSQEPSNGISSDPTVFLDRLAVIFRHTNPIVENGQTHPCQKVIQEIWPVLSETLNKHRADNRIVERCCRCLRFAVRCVGKGSAALLQPLVTQMVNVYHVHQHSCFLYLGSILVDEYGMEEGCRQGLLDMLQALCIPTFQLLEQQNGLQNHPDTVDDLFRLATRFIQRSPVTLLRSQVVIPILQWAIASTTLDHRDANCSVMRFLRDLIHTGVANDHEEDFELRKELIGQVMNQLGQQLVSQLLHTCCFCLPPYTLPDVAEVLWEIMQVDRPTFCRWLENSLKGLPKETTVGAVTVTHKQLTDFHKQVTSAEECKQVCWALRDFTRLFR

- binding: binds
B2: His6-tagged ΔV105 TRN-SR2 (protein, UniProt Q9Y5L0-2 1-923)
chain: MEGAKPTLQLVYQAVQALYHDPDPSGKERASFWLGELQRSVHAWEISDQLLQIRQDVESCYFAAQTMKMKIQTSFYELPTDSHASLRDSLLTHIQNLKDLSPVITQLALAIADLALQMPSWKGCVQTLVEKYSNDVTSLPFLLEILTVLPEEVHSRSLRIGANRRTEIIEDLAFYSSTVVSLLMTCVEKAGTDEKMLMKVFRCLGSWFNLGVLDSNFMANNKLLALLFEVLQQDKTSSNLHEAASDCVCSALYAIENVETNLPLAMQLFQGVLTLETAYHMAVAREDLDKVLNYCRIFTELCETFLEKIVCTPGQGLGDLRTLELLLICAGHPQYEVVEISFNFWYRLGEHLYKTNDEVIHGIFKAYIQRLLHALARHCQLEPDHEGVPEETDDFGEFRMRVSDLVKDLIFLIGSMECFAQLYSTLKEGNPPWEVTEAVLFIMAAIAKSVDPENNPTLVEVLEGVVRLPETVHTAVRYTSIELVGEMSEVVDRNPQFLDPVLGYLMKGLCEKPLASAAAKAIHNICSVCRDHMAQHFNGLLEIARSLDSFLLSPEAAVGLLKGTALVLARLPLDKITECLSELCSVQVMALKKLLSQEPSNGISSDPTVFLDRLAVIFRHTNPIVENGQTHPCQKVIQEIWPVLSETLNKHRADNRIVERCCRCLRFAVRCVGKGSAALLQPLVTQMVNVYHVHQHSCFLYLGSILVDEYGMEEGCRQGLLDMLQALCIPTFQLLEQQNGLQNHPDTVDDLFRLATRFIQRSPVTLLRSQVVIPILQWAIASTTLDHRDANCSVMRFLRDLIHTGVANDHEEDFELRKELIGQVMNQLGQQLVSQLLHTCCFCLPPYTLPDVAEVLWEIMQVDRPTFCRWLENSLKGLPKETTVGAVTVTHKQLTDFHKQVTSAEECKQVCWALRDFTRLFR
